Data source: PubChem BioAssay AID1224830 (NIAID, 2016)

Screen: 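Regulators of TLR4 signalling towards TNF-alpha in macrophage-like cells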 (primary screen)
System: human THP-1 monocytic leukaemia cells, TNF dual-luciferase reporter clone, PMA-differentiated to macrophage-like cells
Reagent: siRNA pool against human genes, 50 nM
Time to read-out: LPS for 4 h, given about 3 days after siRNA transfection
Treatment: bacterial LPS (TLR4 ligand), 10 ng/ml
Read-out: 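TNF firefly reporter luminescence divided by renilla, normalised to the plate median, then turned into a robust z-score for each replicate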
Direction: TNF reporter robust z-score: higher = stronger TNF reporter response to LPS
Call rule: 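Each well counts as active if its z-score is over 2.8 or under -1.5; controls are left without a call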
The whole screen tested about 18,000 reagents; shown is a part drawn at random. About 2,900 of all reagents (16%) count as active. 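Calls are made per well; low scores hint the gene aids the LPS response, high scores that it dampens it.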 Repeated entries: four replicate wells of each siRNA pool.

BCAM (basal cell adhesion molecule (Lutheran blood group)) gave TNF reporter robust z-score 1.32; inactive. BCAM (basal cell adhesion molecule (Lutheran blood group)) gave TNF reporter robust z-score 1.96; inactive. For BCAM (basal cell adhesion molecule (Lutheran blood group)), the entry reads TNF reporter robust z-score 1.31; inactive. After knock-down of BCAM (basal cell adhesion molecule (Lutheran blood group)), the screen gave TNF reporter robust z-score 0.89; inactive. For CHMP3 (charged multivesicular body protein 3), the values are TNF reporter robust z-score -1.03; inactive. Silencing of CHMP3 (charged multivesicular body protein 3) came out at: TNF reporter robust z-score -0.57; inactive.

Silencing of CHMP3 (charged multivesicular body protein 3) came out at: TNF reporter robust z-score -0.74; inactive. With knock-down of CHMP3 (charged multivesicular body protein 3), the screen gave TNF reporter robust z-score -0.73; inactive. For ABL2 (ABL proto-oncogene 2, non-receptor tyrosine kinase), the values are TNF reporter robust z-score 3.68; active. ABL2 (ABL proto-oncogene 2, non-receptor tyrosine kinase) scored TNF reporter robust z-score -0.04; inactive. Against ABL2 (ABL proto-oncogene 2, non-receptor tyrosine kinase), the values are TNF reporter robust z-score 0.15; inactive. ABL2 (ABL proto-oncogene 2, non-receptor tyrosine kinase) scored TNF reporter robust z-score 0.37; inactive.

IL20 (interleukin 20) gave TNF reporter robust z-score -0.65; inactive. IL20 (interleukin 20) showed TNF reporter robust z-score -0.58; inactive. After knock-down of IL20 (interleukin 20), the record shows TNF reporter robust z-score -0.8; inactive. After knock-down of IL20 (interleukin 20), the record shows TNF reporter robust z-score 0.05; inactive. SMARCD2 (SWI/SNF related BAF chromatin remodeling complex subunit D2) showed TNF reporter robust z-score -0.99; inactive. After knock-down of SMARCD2 (SWI/SNF related BAF chromatin remodeling complex subunit D2) the results were TNF reporter robust z-score 0.89; inactive.

Against SMARCD2 (SWI/SNF related BAF chromatin remodeling complex subunit D2) the deposit lists TNF reporter robust z-score 0.63; inactive. SMARCD2 (SWI/SNF related BAF chromatin remodeling complex subunit D2) gave TNF reporter robust z-score 1.28; inactive. Depletion of SYNGAP1 (synaptic Ras GTPase activating protein 1) resulted in: TNF reporter robust z-score -0.75; inactive. SYNGAP1 (synaptic Ras GTPase activating protein 1) scored TNF reporter robust z-score -0.49; inactive. For SYNGAP1 (synaptic Ras GTPase activating protein 1), the values are TNF reporter robust z-score -0.86; inactive. For SYNGAP1 (synaptic Ras GTPase activating protein 1) the deposit lists TNF reporter robust z-score -0.94; inactive.

For GFRA4 (GDNF family receptor alpha 4) the deposit lists TNF reporter robust z-score -0.4; inactive. With knock-down of GFRA4 (GDNF family receptor alpha 4), the screen gave TNF reporter robust z-score -0.66; inactive. With knock-down of GFRA4 (GDNF family receptor alpha 4), the record shows TNF reporter robust z-score -0.79; inactive. Knock-down of GFRA4 (GDNF family receptor alpha 4) came out at: TNF reporter robust z-score -1.26; inactive. B4GALT6 (beta-1,4-galactosyltransferase 6) scored TNF reporter robust z-score -0.28; inactive. After knock-down of B4GALT6 (beta-1,4-galactosyltransferase 6), the record shows TNF reporter robust z-score 0.14; inactive.

With knock-down of B4GALT6 (beta-1,4-galactosyltransferase 6), the record shows TNF reporter robust z-score 0.17; inactive. After knock-down of B4GALT6 (beta-1,4-galactosyltransferase 6) the results were TNF reporter robust z-score 0.83; inactive. With knock-down of NT5C2 (5'-nucleotidase, cytosolic II), the screen gave TNF reporter robust z-score -0.52; inactive. NT5C2 (5'-nucleotidase, cytosolic II) gave TNF reporter robust z-score -0.62; inactive. NT5C2 (5'-nucleotidase, cytosolic II) showed TNF reporter robust z-score -0.77; inactive. With knock-down of NT5C2 (5'-nucleotidase, cytosolic II), the record shows TNF reporter robust z-score -0.42; inactive.

Silencing of UBE2J1 (ubiquitin conjugating enzyme E2 J1) gave: TNF reporter robust z-score -0.47; inactive. Against UBE2J1 (ubiquitin conjugating enzyme E2 J1) the deposit lists TNF reporter robust z-score -1.15; inactive. Knock-down of UBE2J1 (ubiquitin conjugating enzyme E2 J1) resulted in: TNF reporter robust z-score -0.18; inactive. Against UBE2J1 (ubiquitin conjugating enzyme E2 J1) the deposit lists TNF reporter robust z-score 0.52; inactive. OSR2 (odd-skipped related transciption factor 2) gave TNF reporter robust z-score -0.48; inactive. Depletion of OSR2 (odd-skipped related transciption factor 2) resulted in: TNF reporter robust z-score -0.11; inactive.

Against OSR2 (odd-skipped related transciption factor 2), the entry reads TNF reporter robust z-score 1.49; inactive. After knock-down of OSR2 (odd-skipped related transciption factor 2), the record shows TNF reporter robust z-score 0.17; inactive. For CAPZA1 (capping actin protein of muscle Z-line subunit alpha 1), the entry reads TNF reporter robust z-score 1.21; inactive. CAPZA1 (capping actin protein of muscle Z-line subunit alpha 1) scored TNF reporter robust z-score -0.5; inactive. Against CAPZA1 (capping actin protein of muscle Z-line subunit alpha 1) the deposit lists TNF reporter robust z-score -1.28; inactive. Against CAPZA1 (capping actin protein of muscle Z-line subunit alpha 1), the entry reads TNF reporter robust z-score -0.61; inactive.

Knock-down of RASSF4 (Ras association domain family member 4) gave: TNF reporter robust z-score -0.89; inactive. Silencing of RASSF4 (Ras association domain family member 4) resulted in: TNF reporter robust z-score 0.55; inactive. RASSF4 (Ras association domain family member 4) showed TNF reporter robust z-score 0.03; inactive. Knock-down of RASSF4 (Ras association domain family member 4) came out at: TNF reporter robust z-score 0.62; inactive. FAF1 (Fas associated factor 1) showed TNF reporter robust z-score 0.59; inactive. Knock-down of FAF1 (Fas associated factor 1) resulted in: TNF reporter robust z-score 1.37; inactive.

Knock-down of FAF1 (Fas associated factor 1) gave: TNF reporter robust z-score 1.36; inactive. FAF1 (Fas associated factor 1) scored TNF reporter robust z-score 2.15; inactive. CLPX gave TNF reporter robust z-score -0.91; inactive. For CLPX the deposit lists TNF reporter robust z-score -0.9; inactive. Depletion of CLPX gave: TNF reporter robust z-score 0.21; inactive. CLPX scored TNF reporter robust z-score 1.39; inactive.

Laid out differently: results already given
{"gene symbol": "OSR2 (odd-skipped related transciption factor 2)", "TNF reporter robust z-score": -0.48, "Call": "inactive"}
{"gene symbol": "OSR2 (odd-skipped related transciption factor 2)", "TNF reporter robust z-score": -0.11, "Call": "inactive"}
{"gene symbol": "OSR2 (odd-skipped related transciption factor 2)", "TNF reporter robust z-score": 1.49, "Call": "inactive"}
{"gene symbol": "OSR2 (odd-skipped related transciption factor 2)", "TNF reporter robust z-score": 0.17, "Call": "inactive"}
{"gene symbol": "CAPZA1 (capping actin protein of muscle Z-line subunit alpha 1)", "TNF reporter robust z-score": 1.21, "Call": "inactive"}
{"gene symbol": "CAPZA1 (capping actin protein of muscle Z-line subunit alpha 1)", "TNF reporter robust z-score": -0.5, "Call": "inactive"}
{"gene symbol": "CAPZA1 (capping actin protein of muscle Z-line subunit alpha 1)", "TNF reporter robust z-score": -1.28, "Call": "inactive"}
{"gene symbol": "CAPZA1 (capping actin protein of muscle Z-line subunit alpha 1)", "TNF reporter robust z-score": -0.61, "Call": "inactive"}
{"gene symbol": "RASSF4 (Ras association domain family member 4)", "TNF reporter robust z-score": -0.89, "Call": "inactive"}
